Data from publication PMC12679550 (ACS Chemical Neuroscience, 2025).
Where two headings read alike, the source gives them in different places. No constants are given. Whether binding was seen depends on the method and setting. In cells and extracts the contact can be indirect. For some assays here: Binding can be weak; no strength is given.

Amino acid sequences for entries named in this document (tags omitted). A change or cut given only in a name is not applied to a line headed by its entry.
UniProt P08913: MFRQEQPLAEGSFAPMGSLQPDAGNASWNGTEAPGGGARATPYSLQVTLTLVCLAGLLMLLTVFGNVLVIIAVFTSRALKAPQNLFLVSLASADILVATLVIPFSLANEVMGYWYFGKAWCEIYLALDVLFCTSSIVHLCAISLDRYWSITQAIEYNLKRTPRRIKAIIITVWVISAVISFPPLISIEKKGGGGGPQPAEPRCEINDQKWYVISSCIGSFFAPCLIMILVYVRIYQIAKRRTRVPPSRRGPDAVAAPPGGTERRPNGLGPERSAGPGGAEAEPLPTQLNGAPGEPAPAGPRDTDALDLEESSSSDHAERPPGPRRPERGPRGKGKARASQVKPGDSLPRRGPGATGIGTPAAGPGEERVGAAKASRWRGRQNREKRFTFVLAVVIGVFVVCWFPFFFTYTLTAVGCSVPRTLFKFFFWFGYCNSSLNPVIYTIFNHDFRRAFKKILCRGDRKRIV
UniProt P32121: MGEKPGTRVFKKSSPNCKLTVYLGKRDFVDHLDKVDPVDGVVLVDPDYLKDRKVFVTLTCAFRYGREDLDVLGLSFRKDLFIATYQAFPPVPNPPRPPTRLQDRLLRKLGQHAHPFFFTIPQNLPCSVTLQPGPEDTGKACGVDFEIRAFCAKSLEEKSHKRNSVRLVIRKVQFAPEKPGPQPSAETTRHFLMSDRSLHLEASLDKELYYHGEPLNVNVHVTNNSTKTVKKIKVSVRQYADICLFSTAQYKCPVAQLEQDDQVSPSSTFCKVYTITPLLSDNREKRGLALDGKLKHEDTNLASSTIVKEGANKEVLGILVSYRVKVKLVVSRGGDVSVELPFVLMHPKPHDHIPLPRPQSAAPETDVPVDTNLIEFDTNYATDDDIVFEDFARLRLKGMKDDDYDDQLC

Tests used:
[1] = molecular target: human α2A-adrenoceptor (human) (UniProt P08913); assay: condition: only cells treated with mitragynine or atipamezole alone, without the agonist UK 14,304; split reporter; PathHunter eXpress ADRA2A enzyme-complementation assay in CHO-K1 cells; cells treated with mitragynine or atipamezole alone (agonist mode, no UK 14,304) for 90 min at 37 °C; luminescence read-out
[2] = molecular target: human α2A-adrenoceptor (human) (UniProt P08913)

- binding [1]: no binding
- binding [2]: binds
Substance: β-arrestin2 (from UniProt P32121 1-409)
